This is an account of results in the supplement of paper PMC4635364.

Structures can show the parent of a compound that is named as a salt. This is one part of the list. Repeats in this data set agree poorly, so a single value says little.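 ReNCell VM, a human fetal ventral-midbrain neural progenitor line, was differentiated without mitogens. Blinded raters scored images stained for doublecortin (early neurons) or tyrosine hydroxylase (dopaminergic neurons) against untreated wells (0 = no change). Scores were averaged across repeats and both raters, and compounds averaging 2 or more were selected as hits for retesting.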

One assay deals with ReNCell VM. The assay can be described thus: neuronal differentiation score (DCX+ cell fraction vs untreated, manual image score) (score (-3 to 3)); higher = more neuronal differentiation. To be noted: library: Natural; 2 uM; 2 weeks.
For `C1CC[C@H]([C@]23C[C@@H](C[C@@H]4CCCN[C@H]42)[C@H]2CCCCN2C3)NC1` [ormosanine], the neuronal differentiation score is inactive: 0.

Regarding `CCN1C[C@]2(C)CC[C@H](OC)C34C5C[C@@H]6CC[C@@](O)(C5C(=O)O6)C(C13)[C@@H](OC(=O)c1ccccc1)[C@@H]42` [6-benzoylheteratisine], the neuronal differentiation score was inactive: 0.

As to `O=C(O)C1Cc2[nH]cnc2C(c2cccnc2)N1` (centres undefined), the neuronal differentiation score was inactive: 0.

Staying with this assay, now noted: library: Prestwick; 2 uM; 2 weeks.
Regarding `Cc1cc(C(C#N)c2ccc(Cl)cc2)c(Cl)cc1NC(=O)c1cc(I)cc(I)c1O` (centres undefined) [Closantel], the neuronal differentiation score is inactive: 0.

For the molecule `CCN[C@@H](C)Cc1cccc(C(F)(F)F)c1` [Dexfenfluramine hydrochloride], the neuronal differentiation score was inactive: 0.

`COP(=O)(OC)C(O)C(Cl)(Cl)Cl` (centres undefined) [Trichlorfon]: the neuronal differentiation score was inactive: 0.

Take `Cc1cccc(C)c1NC1=NCCCS1` [Xylazine]: the neuronal differentiation score is inactive: 0.

Turning to `COc1ccc(CN2CCNCC2)c(OC)c1OC` [Trimetazidine dihydrochloride], the neuronal differentiation score is inactive: 0.

Take `C[CH2][Hg][S]c1ccccc1C(=O)[O-].[Na+]` [Thimerosal]: the neuronal differentiation score is inactive: 0.
